Measured values published in US11607458B2 (Georgia State University Research Foundation, Inc, priority 2017, dated 2023).

Assay: Release of the parent drug (Dox / dansyl amine) from prodrugs treated with alkynes, monitored by HPLC
Assay type: physicochemical
Conditions: PBS 10% DMSO
Method: (§1) Standard curve of Dox concentration measurement. To four HPLC vials containing 0.9 mL PBS (size: 1.5 mL) were added 25, 15, 20, 10 μL Dox stock solution (1 mM) respectively. Then defined amounts DMSO (975, 985, 980, and 990 μL) were added to each vial to afford final concentration of four vials were 25, 15, 20, 10 μM in PBS (10% DMSO), respectively. The samples were analyzed with HPLC method A. Dox retention time: 4.0 min.
as §1, with “for DA” for “of Dox”, “B. DA” for “A. Dox”, “5.8” for “4.0”
General procedures HPLC studies of reaction kinetics. To three 20-ml vials with 9 mL PBS were added a solution of tetrazine prodrug (500 μL, 500 μM). 350 μL, 300 μL and 250 μL DMSO were added to vial respectively, and then 150 μL, 200 μL and 250 μL of the alkyne solution (50 mM in DMSO) were added to the vials to afford final concentrations of alkyne 0.75 mM, 1 mM and 1.25 mM in PBS (10% DMSO, 25 μM prodrug) respectively. The reaction was stirred at r.t or 37° C. respectively. Every 30 min about 500 μL reaction mixtures were taken out and 20 μL of them were injected into the HPLC by the autosampler; the rest of them were poured back to the reaction mixture. (Note: In the cases of prodrugs 1d or 1b reacting with alkyne 2d at 37° C., the final concentrations of 2d in the kinetic studies were 250 μM, 300 μM and 350 μM).
Results. The results from the reaction kinetics studies of the tetrazine-cyclooctyne system are summarized below in Table 4. Prodrugs 1d or 1b (25 μM) were treated with alkynes 2d, 2c ,2a, or 2b at different concentrations at room temperature (r.t.) or 37° C., respectively. The prodrug consumption and release of the parent drug were monitored by HPLC (Table 4).

[1] = alkyne 2d (1 mM), dansyl amine for 1d

Compound: C#CCOc1ccc(-c2nnc(C(=O)NC3CC(OC4CC(O)(C(=O)CO)Cc5c(O)c6c(c(O)c54)C(=O)c4c(OC)cccc4C6=O)OC(C)C3O)nn2)cc1 (stereo not drawn) [1b]
- Dox Peak % within 48 h, at r.t (alkyne 2a): 80 ± 5%
- Dox Peak % within 48 h, at r.t (alkyne 2b, dansyl amine for 1d): 80 ± 5%
- Dox Peak % within 48 h, at r.t (alkyne 2c, dansyl amine for 1d, listed as lb): 85 ± 5%
- Dox Peak % within 48 h, at r.t [1]: 20%
- Dox Peak % within 48 h, at r.t (alkyne 2d (1 mM), dansyl amine for 1d, listed as lb): 20 ± 5%

Compound: COc1cccc2c1C(=O)c1c(O)c3c(c(O)c1C2=O)CC(O)(C(=O)CO)CC3OC1CC(NC(=O)c2nnc(-c3ccc(OCc4cn(CCCCCCCCC[P+](c5ccccc5)(c5ccccc5)c5ccccc5)nn4)cc3)nn2)C(O)C(C)O1 (stereo not drawn) [1c]
- Dox Peak % within 48 h, at r.t (alkyne 2b, dansyl amine for 1d): 78 ± 6%

Compound: C#CCOc1ccc(-c2nnc(C(=O)NCCCOCCOCCOCCCNS(=O)(=O)c3cccc4c(N(C)C)cccc34)nn2)cc1 [1d]
- Dox Peak % within 48 h, at r.t (alkyne 2b, dansyl amine for 1d): 90 ± 3%
- Dox Peak % within 48 h, at r.t (alkyne 2c, dansyl amine for 1d): 90 ± 5%
- Dox Peak % within 48 h, at r.t [1]: 60% and 60 ± 6%

Values joined by “and” are separate entries in the source; they are usually repeats but may differ in a detail not shown here. Identical values can stand only once.
